# Measurements: PubChem BioAssay AID504834 (National Center for Advancing Translational Sciences (NCATS), 2011)
# In all, about 320,000 compounds went through this assay and about 22,000 (6.9%) were called active. This list was built around the results that the source calls inconclusive (neither active nor inactive); the mix of calls is not that of the screen. Calls follow the shape of the dose curve; as a rule, active = well fitted inhibition curve with a large enough effect; inconclusive = small, poorly fitted or top-dose-only effect, or another doubt; inactive = no such curve, though single readings can be large or run the other way. Potencies of inconclusive entries are doubtful fits and often do not repeat.
# Test: Primary qHTS for delayed death inhibitors of the malarial parasite plastid, 96 hour incubation
# Conditions: P. falciparum luciferase reporter growth; series mostly up to 28.7 µM
# How it was run: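 P. falciparum expressing integrated firefly luciferase grown in erythrocytes (2% hematocrit, 0.05% parasitemia final) with compounds for 96 hours at 37 C, 5% CO2. Growth inhibition read as loss of luminescence after adding luciferase detection reagent.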
# Potency is read from the fitted curve at half-maximal effect.
row,Structure (SMILES),Potency
1,N#Cc1ccc(/C=N/NC(=O)CCc2ccc(S(=O)(=O)N3CCOCC3)cc2)cc1,active: 6.57 µM
2,O=c1c2ccccc2c(/C=N/c2n[nH]c(CCCO)n2)c(O)n1-c1ccccc1Cl,inactive
3,CCCCN1C(=O)/C(=C/C=C2\N(C)c3ccccc3C2(C)C)SC1=S,"inconclusive: 11.7 µM [inhibitor, single point]"
4,COc1ccc(C(=O)NCCNc2ccc([N+](=O)[O-])cc2)cc1OC,active: 5.22 µM
5,O=C(NCCn1cccn1)C1CCC(=O)N(CCc2ccc(Cl)cc2)C1 (stereo unspecified),inactive
6,CC(C)c1cccc(C(C)C)c1NC(=O)COC(=O)C1CCC1,inactive
7,Cc1cc(-n2c(SCc3ccccc3F)nc3n[nH]c(C)c3c2=N)ccc1Cl,active: 4.65 µM
8,O=C(c1[nH]ncc1[N+](=O)[O-])N1CCOCC1,"inconclusive: 20.8 µM [inhibitor, partial curve, poor fit]"
9,CC(=O)N1N=C(c2cccc(Cl)c2)OC1c1cccc([N+](=O)[O-])c1 (stereo unspecified),"inconclusive: 11.7 µM [inhibitor, partial curve, poor fit]"
10,O=C(Cc1ccccc1)Nc1ccc(C(=O)O)cc1,"inconclusive: 18.5 µM [inhibitor, single point]"
11,COc1cc(S(=O)(=O)Nc2ccc3nc(C)sc3c2)ccc1NC(C)=O,"inconclusive: 9.28 µM [inhibitor, single point]"
12,CC1=C(C#N)C(NC(=O)C2CC2)(C(F)(F)F)C(=O)N1 (stereo unspecified),"inconclusive: 18.5 µM [inhibitor, single point]"
13,COc1ccc(NC(=O)CS(=O)(=O)c2cn(CC(=O)N(C(C)C)C(C)C)c3ccccc23)c(OC)c1,"inconclusive: 1.17 µM [inhibitor, partial curve]"
14,Cc1ccc(-c2cc(C(=O)O)c3sc(N4CCCCC4)nc3n2)cc1,inactive
15,COc1cccc(N(C(=O)C2COc3ccccc3O2)C(C(=O)NC2CCCCC2)c2ccc(O)cc2)c1 (stereo unspecified),inactive
17,O=[N+]([O-])c1ccc(NC(=S)NCCc2ccc(F)cc2)cc1,active: 5.22 µM
18,CCCn1c(SCC(=O)N2CCc3ccccc3C2)nc2c1c(=O)n(C)c(=O)n2C,inactive
19,O=C(CCn1c(=S)oc2ccccc21)Nc1cccc(O)c1,inactive
20,COc1ccc(N2CCN(C(=O)c3ccccc3N(C)S(=O)(=O)c3ccc(C)cc3)CC2)cc1,active: 10.4 µM
21,COc1ccccc1NC(=O)C(C)OC(=O)c1cc2ccccc2[nH]1 (stereo unspecified),"inconclusive: 8.28 µM [inhibitor, partial curve, poor fit]"
22,O=C(O)CCCN1C(=O)C2C3c4ccccc4C(c4ccccc43)[C@@H]2C1=O (stereo partly specified),inactive
23,CCCN1C2CCCC1CC(NC(=O)Nc1cccc(C(C)=O)c1)C2 (stereo unspecified),"inconclusive: 7.38 µM [inhibitor, partial curve, poor fit]"
24,COc1ccc(CCNC(=O)COC(=O)CSc2ccc([N+](=O)[O-])cc2)cc1OC,"inconclusive: 18.5 µM [inhibitor, single point]"

row,Structure (SMILES),Potency
1,CC1=CC(C)(C)n2c(O)c(N=NC(N)=S)c3cc(C)cc1c32,inactive
2,Cc1cc2cc(CCNS(=O)(=O)c3ccc(F)cc3)c(=O)[nH]c2cc1C,"inconclusive: 13.1 µM [inhibitor, single point]"
3,Cc1ccc2c(CC(=O)N3CCOCC3)coc2c1,"inconclusive: 1.47 µM [inhibitor, partial curve, poor fit]"
4,O=C1CN(C(=O)c2ccco2)C(c2ccccc2)c2cc(Cl)ccc2N1 (stereo unspecified),"inconclusive: 18.5 µM [inhibitor, single point]"
5,Cc1ccccc1NCC(=O)c1ccc(Br)cc1,inactive
6,CC(C)c1ccccc1-n1cc[nH]c1=S,"inconclusive: 18.5 µM [inhibitor, single point]"
7,Cc1cc(C)c(CNC(=O)c2cc(C3CC3)nc3c2cnn3C(C)C)c(=O)[nH]1,"inconclusive: 18.5 µM [inhibitor, single point]"
8,CCCCOC(=O)Nc1nnc(-c2ccccc2OC)s1,"inconclusive: 10.4 µM [inhibitor, single point]"
9,O=C(NNc1nc(-c2ccccc2)cs1)c1ccccc1,active: 2.33 µM
10,O=C(CNC(=O)c1ccccc1)N/N=C/c1ccc([N+](=O)[O-])s1,active: 4.15 µM
11,CC1(c2ccccc2)NC(=O)N(CC(=O)NC(=O)NCc2ccco2)C1=O (stereo unspecified),"inconclusive: 13.1 µM [inhibitor, single point]"
12,CC(=O)c1cc(CC(=O)N2CCc3c([nH]c4ccccc34)C2c2ccccn2)cs1 (stereo unspecified),"inconclusive: 18.5 µM [inhibitor, single point]"
13,O=C(c1ccc(Cl)cc1)N1CCCC(C(=O)N2CCCCC2)C1 (stereo unspecified),inactive
14,C[C@H](NC(=O)c1ccco1)C(=O)Nc1ccc(C#N)cc1,inactive
15,Cc1ccc2nc(-c3sc4nc(C)cc(C)c4c3N)[nH]c2c1,inactive
16,COc1ccccc1N1CCNC(C)C1=O (stereo unspecified),"inconclusive: 18.5 µM [inhibitor, single point]"
17,COc1ccc(OC)c(C2C(C(=O)c3cccs3)=C(O)C(=O)N2c2cc(C)on2)c1 (stereo unspecified),inactive
18,COc1ccc(CC(=O)Nc2cccnc2)cc1,"inconclusive: 16.5 µM [inhibitor, single point]"
19,CC(C)CN(C(=O)COC(=O)c1ccc(Br)cc1)c1c(N)n(Cc2ccccc2)c(=O)[nH]c1=O,"inconclusive: 11.7 µM [inhibitor, partial curve]"
20,Cc1c(Cl)cccc1NC(=O)CSCc1cc(=O)[nH][nH]1,"inconclusive: 18.5 µM [inhibitor, single point]"
21,COc1ccc(-c2nn(-c3ccccc3)cc2C=O)cc1[N+](=O)[O-],"inconclusive: 11.7 µM [inhibitor, partial curve, poor fit]"
22,COc1ccc(COc2ccc3ccc(=O)oc3c2)cc1,inactive
23,COc1ccc(S(=O)(=O)N2CCCC(C(=O)NCc3ccncc3)C2)cc1 (stereo unspecified),"inconclusive: 18.5 µM [inhibitor, single point]"
24,c1cncc(-c2nnc(-c3cccnc3)nn2)c1,"inconclusive: 18.5 µM [inhibitor, single point]"

# In the list so far, three contain an aryl thioether with sulfur outside any ring:
row,Structure (SMILES),Potency
7,Cc1cc(-n2c(SCc3ccccc3F)nc3n[nH]c(C)c3c2=N)ccc1Cl,active: 4.65 µM
18,CCCn1c(SCC(=O)N2CCc3ccccc3C2)nc2c1c(=O)n(C)c(=O)n2C,inactive
24,COc1ccc(CCNC(=O)COC(=O)CSc2ccc([N+](=O)[O-])cc2)cc1OC,"inconclusive: 18.5 µM [inhibitor, single point]"

# Going on with the list.

row,Structure (SMILES),Potency
1,O=C(C1CCCO1)N1CCN(c2ccccn2)CC1 (stereo unspecified),inactive
2,CCO[C@@H]1OC(C(=O)N2CCCCCCC2)=C[C@H](c2ccc3c(c2)OCO3)[C@H]1CCCO,"inconclusive: 10.4 µM [inhibitor, single point]"
3,CCCCN(CC)CCNC(=O)c1cc2c(=O)n(C)c3ccccc3c2s1,"inconclusive: 1.17 µM [inhibitor, partial curve]"
4,c1ccc(-n2nnnc2-n2nnc3ccccc32)cc1,"inconclusive: 8.28 µM [inhibitor, partial curve, poor fit]"
5,CC(C)CCOP(=O)(c1ccc(N(C)C)cc1)C(Nc1ccccc1)c1ccc(N(C)C)cc1 (stereo unspecified),"inconclusive: 2.08 µM [inhibitor, full curve, poor fit]"
6,CCN(CC)S(=O)(=O)c1ccc(NC(=O)CCN2C(=O)C3CC=CCC3C2=O)cc1 (stereo unspecified),"inconclusive: 1.04 µM [inhibitor, single point]"
7,Nc1ccc(-c2ccc(N)c(C(=O)O)c2)cc1C(=O)O,"inconclusive: 0.0033 µM [inhibitor, full curve, poor fit]"
8,CC(C)CC(NC(=O)C1CCC(C)CC1)C(=O)NCc1ccco1 (stereo unspecified),inactive
9,Oc1c(N=NC(=S)Nc2ccccc2F)c2ccccc2n1Cc1ccccc1Cl,"inconclusive: 0.522 µM [inhibitor, partial curve, poor fit]"
10,CCOc1cc(C#N)ccc1OCC(=O)N1CCc2ccccc2C1,"inconclusive: 11.7 µM [inhibitor, partial curve, poor fit]"
11,CCCn1c(N)c(N(CCOC)C(=O)c2ccc([N+](=O)[O-])cc2Cl)c(=O)[nH]c1=O,"inconclusive: 4.15 µM [inhibitor, single point]"
12,COc1ccc(C(CC(=O)N2CCOCC2)c2c(OC)cc(OC)c3ccc(=O)oc23)cc1 (stereo unspecified),"inconclusive: 10.4 µM [inhibitor, partial curve]"
13,Cc1cc(Oc2cc(N)cc([N+](=O)[O-])c2)ccc1Cl,active: 8.28 µM
14,Cc1ccc(CC(=S)N2CCOCC2)cc1,active: 13.1 µM
15,O=C(NC1CCCc2ccccc21)c1cc(F)cc(F)c1 (stereo unspecified),"inconclusive: 0.185 µM [inhibitor, partial curve, poor fit]"
16,O=C(CCNC(=O)c1ccco1)Nc1cccc(Br)c1,"inconclusive: 2.94 µM [inhibitor, partial curve, poor fit]"
17,Cc1ccc(-n2c(SCC(=O)N3CCCCC3)nc(O)c(Cc3ccccc3)c2=O)cc1,inactive
18,Cc1nc(CC(=O)NNS(=O)(=O)c2ccc(F)c(Cl)c2)cs1,"inconclusive: 18.5 µM [inhibitor, single point]"
19,CC/C(C)=N\N=C\c1c(O)n(CC)c2cc(C3=NNC(=O)CC3)ccc12,active: 10.4 µM
20,CCC(=O)NC(=S)Nc1ccc(S(=O)(=O)NC(C)C)cc1,"inconclusive: 0.208 µM [inhibitor, full curve, poor fit]"
21,COc1cccc(-c2nc(CS(=O)(=O)CC(=O)NC3CC3)c(C)o2)c1,"inconclusive: 16.5 µM [inhibitor, partial curve, poor fit]"
22,O=C(NCCCN1CCN(Cc2ccccc2)CC1)C1CCN(S(=O)(=O)N2CCCC2)CC1,inactive
23,COc1cccc(N(C)C(=S)Oc2ccc3c(c2)CCCC3)n1,"inconclusive: 19 µM [inhibitor, single point]"

# Molecules shown so far that contain bromine, in the order listed:
row,Structure (SMILES),Potency
5,Cc1ccccc1NCC(=O)c1ccc(Br)cc1,inactive
19,CC(C)CN(C(=O)COC(=O)c1ccc(Br)cc1)c1c(N)n(Cc2ccccc2)c(=O)[nH]c1=O,"inconclusive: 11.7 µM [inhibitor, partial curve]"
16,O=C(CCNC(=O)c1ccco1)Nc1cccc(Br)c1,"inconclusive: 2.94 µM [inhibitor, partial curve, poor fit]"
